Measurements taken from article PMC8813937.

Chains of the proteins cited; added tags and fusions are not shown. Lines headed by an entry give the natural chain unless they say otherwise; changes in a name come on top.
UniProt P49821: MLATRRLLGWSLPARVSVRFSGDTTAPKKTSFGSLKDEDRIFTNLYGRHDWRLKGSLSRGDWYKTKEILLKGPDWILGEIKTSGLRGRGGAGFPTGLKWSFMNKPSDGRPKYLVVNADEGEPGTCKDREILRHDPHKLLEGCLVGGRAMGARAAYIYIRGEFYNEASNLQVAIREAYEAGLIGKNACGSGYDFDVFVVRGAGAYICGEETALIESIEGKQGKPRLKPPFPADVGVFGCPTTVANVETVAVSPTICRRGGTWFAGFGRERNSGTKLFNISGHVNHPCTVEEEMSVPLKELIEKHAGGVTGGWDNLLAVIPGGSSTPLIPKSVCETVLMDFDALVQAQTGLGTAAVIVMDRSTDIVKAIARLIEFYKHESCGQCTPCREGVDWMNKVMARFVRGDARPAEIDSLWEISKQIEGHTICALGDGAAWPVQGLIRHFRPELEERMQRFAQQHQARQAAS

Tests used:
[1] = target: endogenous NDUFV1 (human (endogenous in HEK293T)) (UniProt P49821); assay: co-IP; HEK293T cells transfected with one tagged partner, the other partner endogenous; IgG as negative control
[2] = target: Flag-NDU-Δ277-325 (human) (UniProt P49821); assay: co-IP; HEK293T cells co-transfected with both partners (exogenous, tagged or untagged); blots; protocol by reference 43
[3] = target: Flag-NDU-Δ364-448 (human) (UniProt P49821); assay: as above
Flag-NDU-Δ80-249 (human) = Flag-NDU-Δ80-249 (human) (UniProt P49821); assay: as above
[4] = target: Flag-tagged NDUFV1, full length (human) (UniProt P49821); assay: as above
[5] = target: endogenous NDUFV1 (human (endogenous in HEK293T)) (UniProt P49821); assay: co-IP; cytoplasmic and mitochondrial protein extracted from HEK293T cells transfected with HA-NC or HA-CYTL1; endogenous NDUFV1
[6] = target: Flag-tagged NDUFV1, full length (human) (UniProt P49821); assay: co-IP; HEK293T cells in which a third protein is co-expressed as blocker (Myc-CYTL1 with 20 μM MG132 for 6 h; HA-CYTL1 or HA-ΔCYTL1; Flag-NDUFV1) against a control vector

Measured: binding

B1: HA-tagged full-length cytokine-like protein 1 (CYTL1) (protein, UniProt Q9NRR1 23-136)
chain: TPPTCYSRMRALSQEITRDFNLLQVSEPSEPCVRYLPRLYLDIHNYCVLDKLRDFVASPPCWKVAQVDSLKDKARKLYTIMNSFCRRDLVFLLDDCNALEYPIPVTTVLPDRQR
not listed: [6]
binds: all other assays above

B2: HA-ΔCYTL1 (CYTL1 lacking the 1-22 aa signal peptide) (domain or fragment, UniProt Q9NRR1 23-136)
chain: B1 chain
binds: [1] | [4]

B3: Myc-CYTL1 (protein, UniProt Q9NRR1 23-136)
chain: B1 chain
binds: [6]

These are yes or no findings as the source states them, for the method shown. Binding seen in cells or lysates may run through a third protein. Binding calls can cover weak binding; strength is not graded here. Tags and fused reporters may be left off the sequences shown.
